{"source": "PubChem BioAssay AID504791 (Drosophila RNAi Screening Center, 2011)", "assay": "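Factors in Argonaute-based small RNA production and activity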 (primary screen)", "system": "Drosophila S2-derived reporter cells", "knock-down reagent": "long dsRNA against Drosophila genes, about 150-250 ng dsRNA per well (siRNA assay); about 80-120 ng (miRNA assay)", "timing": "about 5 days (siRNA assay); about 4 days (miRNA assay)", "treatment": "copper sulfate induction of reporters: 25 µM (siRNA assay); 200 mM stated (miRNA assay), 1-2 days before reading", "measured": "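Dual luciferase assay: Renilla to firefly signal ratio in each well, scaled to the mean ratio of its plate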", "rule for the call": "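First-pass picks had plate-scaled ratios over 1.5 for the siRNA assay, over 1.6 for the miRNA assay, or under 0.6; two distinct dsRNAs had to score alike on retest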", "note": "In all, the deposit lists about 23,000 reagents; shown is an unselected part of those with a known target gene and a result. In the full data, 199 (0.86%) are marked active. 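Plate-scaled ratios behind the calls are not deposited; printed light signals are raw; many rows marked increased or decreased are still called inactive.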 A number with no mark means an inactive call. Not given: the direction of the score."}
{"gene": "trh", "PubChem SID": "SID104188147", "stable assay Renilla, run 1 (luminescence)": 6231, "stable assay firefly, run 1 (luminescence)": 3.03e5}
{"gene": "trh", "PubChem SID": "SID104188531", "stable assay Renilla, run 1 (luminescence)": 6163, "stable assay firefly, run 1 (luminescence)": 3.21e5}
{"gene": "t-Grip84", "PubChem SID": "SID104190696", "stable assay Renilla, run 1 (luminescence)": 6103, "stable assay firefly, run 1 (luminescence)": 3.88e5}
{"gene": "CG5235", "PubChem SID": "SID104190286", "stable assay Renilla, run 1 (luminescence)": 7847, "stable assay firefly, run 1 (luminescence)": 3.30e5}
{"gene": "bnk", "PubChem SID": "SID104196704", "stable assay Renilla, run 1 (luminescence)": 6866, "stable assay firefly, run 1 (luminescence)": 4.22e5}
{"gene": "CG14252", "PubChem SID": "SID104194539", "stable assay Renilla, run 1 (luminescence)": 7114, "stable assay firefly, run 1 (luminescence)": 3.55e5}
{"gene": "ATbp", "PubChem SID": "SID104200698", "stable assay Renilla, run 1 (luminescence)": 4587, "stable assay firefly, run 1 (luminescence)": 2.92e5}
{"gene": "Cpr35B", "PubChem SID": "SID104181741", "stable assay Renilla, run 1 (luminescence)": 6316, "stable assay firefly, run 1 (luminescence)": 5.75e5}
{"gene": "Cpr35B", "PubChem SID": "SID104202156", "stable assay Renilla, run 1 (luminescence)": 3948, "stable assay firefly, run 1 (luminescence)": 3.26e5}
{"gene": "par-6", "PubChem SID": "SID104200151", "stable assay Renilla, run 1 (luminescence)": 8190, "stable assay firefly, run 1 (luminescence)": 4.88e5}
{"gene": "CG30466", "PubChem SID": "SID104185348", "stable assay Renilla, run 1 (luminescence)": 6491, "stable assay firefly, run 1 (luminescence)": 3.46e5}
{"gene": "Sox15", "PubChem SID": "SID104187347", "stable assay Renilla, run 1 (luminescence)": 6818, "stable assay firefly, run 1 (luminescence)": 3.54e5}
{"gene": "Mgat2", "PubChem SID": "SID104196139", "stable assay Renilla, run 1 (luminescence)": 8637, "stable assay firefly, run 1 (luminescence)": 4.27e5}
{"gene": "CG1847", "PubChem SID": "SID104199602", "stable assay Renilla, run 1 (luminescence)": 8053, "stable assay firefly, run 1 (luminescence)": 4.17e5}
{"gene": "CG8243", "PubChem SID": "SID104186914", "stable assay Renilla, run 1 (luminescence)": 7202, "stable assay firefly, run 1 (luminescence)": 4.29e5}
{"gene": "CG8243", "PubChem SID": "SID104202023", "stable assay Renilla, run 1 (luminescence)": 2584, "stable assay firefly, run 1 (luminescence)": 3.20e5}
{"gene": "CG17036", "PubChem SID": "SID104182356", "stable assay Renilla, run 1 (luminescence)": 6771, "stable assay firefly, run 1 (luminescence)": 3.95e5}
{"gene": "stc", "PubChem SID": "SID104183412", "stable assay Renilla, run 1 (luminescence)": 3.44e5, "stable assay firefly, run 1 (luminescence)": 1.63e6}
{"gene": "Ipk2", "PubChem SID": "SID104180149", "stable assay Renilla, run 1 (luminescence)": 8646, "stable assay firefly, run 1 (luminescence)": 5.45e5}

Only “stable assay Renilla, run 1 (luminescence)” (3 entries from above):
CG30466 [SID104185348] = 6491
Sox15 [SID104187347] = 6818
Mgat2 [SID104196139] = 8637
